Data taken from the supplement of paper PMC10849652.
Some of the results follow.

By UniProt entry, the sequences of proteins in these tests, tags left out. Where a name states a change or a piece, a line headed by the entry shows the natural chain unless it says otherwise.
UniProt Q9NPC7: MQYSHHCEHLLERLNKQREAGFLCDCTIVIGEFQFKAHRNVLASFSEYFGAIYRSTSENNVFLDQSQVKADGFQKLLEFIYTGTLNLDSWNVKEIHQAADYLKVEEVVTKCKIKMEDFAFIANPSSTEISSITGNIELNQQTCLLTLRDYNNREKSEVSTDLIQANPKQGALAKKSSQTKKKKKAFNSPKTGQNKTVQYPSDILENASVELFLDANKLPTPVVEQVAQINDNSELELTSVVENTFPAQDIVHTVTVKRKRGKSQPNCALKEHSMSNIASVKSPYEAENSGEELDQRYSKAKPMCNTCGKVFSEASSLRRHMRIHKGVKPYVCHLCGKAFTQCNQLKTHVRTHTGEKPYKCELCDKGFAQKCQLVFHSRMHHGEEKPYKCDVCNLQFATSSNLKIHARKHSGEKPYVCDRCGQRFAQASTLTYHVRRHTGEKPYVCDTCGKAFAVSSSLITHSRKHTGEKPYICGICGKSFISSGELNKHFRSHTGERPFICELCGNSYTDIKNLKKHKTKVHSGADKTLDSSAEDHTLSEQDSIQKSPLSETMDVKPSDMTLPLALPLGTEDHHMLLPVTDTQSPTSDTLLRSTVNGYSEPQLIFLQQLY
UniProt O43795: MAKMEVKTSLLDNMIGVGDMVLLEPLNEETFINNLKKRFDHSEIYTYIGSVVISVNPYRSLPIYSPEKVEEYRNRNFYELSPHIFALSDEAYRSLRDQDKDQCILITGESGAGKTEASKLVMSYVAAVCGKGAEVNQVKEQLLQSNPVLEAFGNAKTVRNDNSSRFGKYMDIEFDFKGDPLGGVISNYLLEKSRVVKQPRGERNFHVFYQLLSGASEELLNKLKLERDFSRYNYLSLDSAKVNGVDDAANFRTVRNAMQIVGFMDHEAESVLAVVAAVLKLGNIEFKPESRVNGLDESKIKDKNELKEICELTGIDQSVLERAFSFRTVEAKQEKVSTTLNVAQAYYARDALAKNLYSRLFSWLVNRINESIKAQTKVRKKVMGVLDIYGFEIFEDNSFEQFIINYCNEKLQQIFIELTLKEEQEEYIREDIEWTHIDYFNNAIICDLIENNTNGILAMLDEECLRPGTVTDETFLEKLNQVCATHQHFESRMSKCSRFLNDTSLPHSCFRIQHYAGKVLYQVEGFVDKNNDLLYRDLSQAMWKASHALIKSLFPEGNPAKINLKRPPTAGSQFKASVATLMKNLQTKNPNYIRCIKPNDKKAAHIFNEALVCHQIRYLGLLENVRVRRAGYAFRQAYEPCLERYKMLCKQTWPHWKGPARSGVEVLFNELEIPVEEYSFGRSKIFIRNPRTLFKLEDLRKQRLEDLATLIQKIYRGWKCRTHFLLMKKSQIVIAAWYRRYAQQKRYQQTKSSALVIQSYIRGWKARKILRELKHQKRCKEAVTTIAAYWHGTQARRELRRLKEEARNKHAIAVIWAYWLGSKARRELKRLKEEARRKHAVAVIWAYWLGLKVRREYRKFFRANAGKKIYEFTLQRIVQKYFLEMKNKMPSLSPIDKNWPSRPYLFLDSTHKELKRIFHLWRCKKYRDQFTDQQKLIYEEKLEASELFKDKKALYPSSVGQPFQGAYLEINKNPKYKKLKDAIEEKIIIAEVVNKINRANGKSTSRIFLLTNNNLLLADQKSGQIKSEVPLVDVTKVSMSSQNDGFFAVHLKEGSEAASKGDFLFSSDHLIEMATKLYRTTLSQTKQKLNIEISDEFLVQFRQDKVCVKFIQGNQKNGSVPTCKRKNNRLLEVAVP
UniProt Q6P1R3: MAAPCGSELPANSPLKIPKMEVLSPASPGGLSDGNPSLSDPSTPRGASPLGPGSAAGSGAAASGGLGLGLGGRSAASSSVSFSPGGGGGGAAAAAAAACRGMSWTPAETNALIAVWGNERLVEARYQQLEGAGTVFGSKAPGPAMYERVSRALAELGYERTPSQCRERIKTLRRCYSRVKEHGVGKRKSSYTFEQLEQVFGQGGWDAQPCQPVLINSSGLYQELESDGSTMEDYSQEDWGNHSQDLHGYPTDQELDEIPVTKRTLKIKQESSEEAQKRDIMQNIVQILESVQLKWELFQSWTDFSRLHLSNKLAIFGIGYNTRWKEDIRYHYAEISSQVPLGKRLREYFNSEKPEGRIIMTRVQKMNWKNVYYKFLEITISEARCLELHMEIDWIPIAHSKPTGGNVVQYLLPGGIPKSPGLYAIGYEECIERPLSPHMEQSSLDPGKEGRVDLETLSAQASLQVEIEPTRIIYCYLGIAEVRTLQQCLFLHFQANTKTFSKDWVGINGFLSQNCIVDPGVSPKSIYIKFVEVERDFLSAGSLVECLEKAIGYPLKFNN
UniProt Q13126: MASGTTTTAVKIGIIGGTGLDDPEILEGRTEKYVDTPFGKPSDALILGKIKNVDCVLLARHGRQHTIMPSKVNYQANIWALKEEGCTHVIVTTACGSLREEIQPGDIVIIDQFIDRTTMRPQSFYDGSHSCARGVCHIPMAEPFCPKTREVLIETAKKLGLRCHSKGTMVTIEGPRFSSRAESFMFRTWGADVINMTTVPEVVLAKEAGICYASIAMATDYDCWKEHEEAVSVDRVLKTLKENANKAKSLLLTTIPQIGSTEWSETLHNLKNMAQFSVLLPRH
UniProt P05976, whole entry, looked up: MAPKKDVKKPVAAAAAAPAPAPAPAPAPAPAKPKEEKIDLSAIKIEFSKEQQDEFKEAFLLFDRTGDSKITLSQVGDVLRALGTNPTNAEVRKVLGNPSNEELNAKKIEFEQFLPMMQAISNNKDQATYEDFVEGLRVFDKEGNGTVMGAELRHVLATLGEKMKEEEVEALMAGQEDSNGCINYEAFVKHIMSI
UniProt Q9H903: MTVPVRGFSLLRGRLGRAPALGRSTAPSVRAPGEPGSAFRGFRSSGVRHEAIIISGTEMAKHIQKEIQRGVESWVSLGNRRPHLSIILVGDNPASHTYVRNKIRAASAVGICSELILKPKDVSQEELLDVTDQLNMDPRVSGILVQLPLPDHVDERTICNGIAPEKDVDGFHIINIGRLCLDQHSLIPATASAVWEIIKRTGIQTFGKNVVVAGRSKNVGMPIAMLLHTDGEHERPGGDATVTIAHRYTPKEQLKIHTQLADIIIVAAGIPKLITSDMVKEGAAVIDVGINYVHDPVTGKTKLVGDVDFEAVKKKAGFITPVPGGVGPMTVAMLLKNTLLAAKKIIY
MTHFD1, A0A384N5Y3, UniProt A0A384N5Y3, whole entry, looked up: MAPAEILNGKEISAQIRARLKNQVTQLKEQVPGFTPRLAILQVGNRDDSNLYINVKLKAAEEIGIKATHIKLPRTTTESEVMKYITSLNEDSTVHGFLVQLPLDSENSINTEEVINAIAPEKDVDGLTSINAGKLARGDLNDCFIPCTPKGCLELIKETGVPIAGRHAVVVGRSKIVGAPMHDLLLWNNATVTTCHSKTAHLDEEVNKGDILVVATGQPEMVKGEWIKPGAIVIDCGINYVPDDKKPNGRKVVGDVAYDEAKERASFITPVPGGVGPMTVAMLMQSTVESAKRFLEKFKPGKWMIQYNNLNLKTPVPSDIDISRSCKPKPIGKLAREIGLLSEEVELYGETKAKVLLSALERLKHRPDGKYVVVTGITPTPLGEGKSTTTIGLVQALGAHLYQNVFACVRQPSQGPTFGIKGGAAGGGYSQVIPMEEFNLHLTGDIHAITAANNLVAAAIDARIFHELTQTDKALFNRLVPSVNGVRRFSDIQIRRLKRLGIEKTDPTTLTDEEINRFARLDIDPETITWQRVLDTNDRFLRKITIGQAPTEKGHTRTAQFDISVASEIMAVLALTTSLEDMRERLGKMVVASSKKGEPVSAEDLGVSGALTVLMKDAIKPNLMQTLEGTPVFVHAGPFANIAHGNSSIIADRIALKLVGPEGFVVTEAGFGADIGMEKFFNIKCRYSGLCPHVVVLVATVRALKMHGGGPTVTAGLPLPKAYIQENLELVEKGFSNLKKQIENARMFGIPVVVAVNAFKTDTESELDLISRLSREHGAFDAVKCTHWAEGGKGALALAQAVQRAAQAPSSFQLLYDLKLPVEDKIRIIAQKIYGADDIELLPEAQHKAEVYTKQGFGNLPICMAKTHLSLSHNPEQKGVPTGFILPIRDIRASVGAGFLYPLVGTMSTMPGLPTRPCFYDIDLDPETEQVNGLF
UniProt P13533, whole entry, looked up: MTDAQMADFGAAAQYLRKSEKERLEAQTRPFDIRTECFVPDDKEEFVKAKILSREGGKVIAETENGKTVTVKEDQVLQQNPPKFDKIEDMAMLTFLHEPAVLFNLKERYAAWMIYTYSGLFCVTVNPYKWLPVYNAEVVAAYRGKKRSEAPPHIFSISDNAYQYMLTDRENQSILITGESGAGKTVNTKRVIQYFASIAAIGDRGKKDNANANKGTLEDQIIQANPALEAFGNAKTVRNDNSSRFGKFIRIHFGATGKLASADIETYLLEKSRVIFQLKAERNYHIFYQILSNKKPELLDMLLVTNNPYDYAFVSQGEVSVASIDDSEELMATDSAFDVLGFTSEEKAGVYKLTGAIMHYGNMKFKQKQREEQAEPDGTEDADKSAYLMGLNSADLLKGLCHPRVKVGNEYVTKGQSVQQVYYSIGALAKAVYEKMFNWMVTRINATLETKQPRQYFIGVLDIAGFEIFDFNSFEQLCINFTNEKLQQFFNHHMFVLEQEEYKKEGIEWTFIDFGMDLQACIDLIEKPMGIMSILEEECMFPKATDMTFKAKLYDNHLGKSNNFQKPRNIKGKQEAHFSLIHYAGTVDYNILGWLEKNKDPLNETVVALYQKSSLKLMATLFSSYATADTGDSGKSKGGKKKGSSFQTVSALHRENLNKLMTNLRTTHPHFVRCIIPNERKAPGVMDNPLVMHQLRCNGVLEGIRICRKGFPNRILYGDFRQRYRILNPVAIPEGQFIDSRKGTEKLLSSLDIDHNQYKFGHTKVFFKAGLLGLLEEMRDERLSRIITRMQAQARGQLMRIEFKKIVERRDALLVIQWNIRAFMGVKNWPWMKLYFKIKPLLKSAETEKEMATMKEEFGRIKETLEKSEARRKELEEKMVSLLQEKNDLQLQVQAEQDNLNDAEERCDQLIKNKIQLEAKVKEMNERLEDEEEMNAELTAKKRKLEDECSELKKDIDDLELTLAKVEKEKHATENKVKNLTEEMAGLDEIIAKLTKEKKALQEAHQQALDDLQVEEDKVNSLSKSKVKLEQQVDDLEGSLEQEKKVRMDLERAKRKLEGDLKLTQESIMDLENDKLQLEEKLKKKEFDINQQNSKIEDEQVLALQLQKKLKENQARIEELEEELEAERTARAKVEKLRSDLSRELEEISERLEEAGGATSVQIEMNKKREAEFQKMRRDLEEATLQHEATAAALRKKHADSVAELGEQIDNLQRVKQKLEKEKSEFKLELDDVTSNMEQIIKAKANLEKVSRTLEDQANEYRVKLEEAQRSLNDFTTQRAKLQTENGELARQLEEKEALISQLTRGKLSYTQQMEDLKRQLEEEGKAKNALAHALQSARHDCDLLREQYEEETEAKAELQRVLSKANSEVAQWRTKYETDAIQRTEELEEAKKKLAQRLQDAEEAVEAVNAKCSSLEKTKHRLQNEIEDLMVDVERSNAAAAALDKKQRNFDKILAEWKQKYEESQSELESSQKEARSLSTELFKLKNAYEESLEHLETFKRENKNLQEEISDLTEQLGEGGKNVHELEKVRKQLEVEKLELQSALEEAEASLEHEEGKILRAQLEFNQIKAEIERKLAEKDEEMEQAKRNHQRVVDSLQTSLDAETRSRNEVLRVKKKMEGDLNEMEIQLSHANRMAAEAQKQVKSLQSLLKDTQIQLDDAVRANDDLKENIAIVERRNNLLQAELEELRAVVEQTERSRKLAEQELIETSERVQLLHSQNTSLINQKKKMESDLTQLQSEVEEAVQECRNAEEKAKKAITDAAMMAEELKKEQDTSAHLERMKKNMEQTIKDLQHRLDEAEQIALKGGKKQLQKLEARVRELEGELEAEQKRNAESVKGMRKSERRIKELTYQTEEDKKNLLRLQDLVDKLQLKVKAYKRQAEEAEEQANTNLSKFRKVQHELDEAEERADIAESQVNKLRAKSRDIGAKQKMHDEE
UniProt G3V1V0: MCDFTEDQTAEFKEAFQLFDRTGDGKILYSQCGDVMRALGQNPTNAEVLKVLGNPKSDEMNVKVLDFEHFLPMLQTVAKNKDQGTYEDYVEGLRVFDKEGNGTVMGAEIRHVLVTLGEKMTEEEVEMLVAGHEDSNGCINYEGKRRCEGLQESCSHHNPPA
UniProt Q9BT17: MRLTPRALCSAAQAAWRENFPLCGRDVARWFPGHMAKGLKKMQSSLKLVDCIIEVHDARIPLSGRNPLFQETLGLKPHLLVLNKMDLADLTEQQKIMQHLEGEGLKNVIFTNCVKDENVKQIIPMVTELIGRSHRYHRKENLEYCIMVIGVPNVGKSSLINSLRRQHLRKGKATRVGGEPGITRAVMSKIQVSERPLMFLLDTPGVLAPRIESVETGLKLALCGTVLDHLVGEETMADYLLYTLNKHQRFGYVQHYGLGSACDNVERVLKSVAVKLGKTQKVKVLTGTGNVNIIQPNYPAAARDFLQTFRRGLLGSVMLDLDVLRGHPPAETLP

Legend:
Assay in all cases: log2 fold change, soluble protein after heating vs DMSO (PISA); higher = thermal stabilisation; K562 cells, 10 uM, 30 min; active = over 0.2 and 3.5 SD of the protein, either way, in both replicates (recomputed)
[1] = compound: CS(=O)(=O)c1ccc(-c2cnc(N)c(C(=O)Nc3ccccc3)n2)cc1
How it was run: (§1)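 K562 cells at 2×10^6 cells/mL were treated with 10 μM compound for 30 min. Aliquots were heated for 3 min across 48°C-58°C, pooled, and extracted in PBS with 0.5% NP-40 at 4°C; soluble protein was the supernatant after 21,000xg for 90 min. Soluble protein was quantified by TMTpro 16plex LC-MS/MS with channel sums equalised, and reported as log2 fold change in thermal stability against DMSO controls, with values from duplicates.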

crizotinib = compound: C[C@@H](Oc1cc(-c2cnn(C3CCNCC3)c2)cnc1N)c1c(Cl)ccc(F)c1Cl [crizotinib]
How it was run: as §1

[2] = compound: C[C@H](C1=CC=C(C=C1)C(=O)NC2=C3C=CNC3=NC=C2)N
How it was run: as §1

tozasertib = compound: Cc1cc(Nc2cc(N3CCN(C)CC3)nc(Sc3ccc(NC(=O)C4CC4)cc3)n2)n[nH]1 [tozasertib]
How it was run: as §1

doramapimod = compound: Cc1ccc(-n2nc(C(C)(C)C)cc2NC(=O)Nc2ccc(OCCN3CCOCC3)c3ccccc23)cc1 [doramapimod]
How it was run: as §1

ispinesib = compound: Cc1ccc(C(=O)N(CCCN)[C@@H](c2nc3cc(Cl)ccc3c(=O)n2Cc2ccccc2)C(C)C)cc1 [ispinesib]
How it was run: as §1

bafetinib = compound: Cc1ccc(NC(=O)c2ccc(CN3CC[C@H](N(C)C)C3)c(C(F)(F)F)c2)cc1Nc1nccc(-c2cncnc2)n1 [bafetinib]
How it was run: as §1

nilotinib = compound: Cc1cn(-c2cc(NC(=O)c3ccc(C)c(Nc4nccc(-c5cccnc5)n4)c3)cc(C(F)(F)F)c2)cn1 [nilotinib]
How it was run: as §1

[3] = compound: Cc1nc(Nc2n[nH]c3c2CN(C(=O)N[C@H](CN(C)C)c2ccccc2)C3(C)C)c2sccc2n1
How it was run: as §1

[4] = compound: Cc1ncc(-c2ccnc(Nc3ccc(S(C)(=O)=O)cc3)n2)n1C(C)C
How it was run: as §1

[5] = compound: Cn1cc(-c2ccc3c(c2)CCN3C(=O)Cc2cccc(C(F)(F)F)c2)c2c(N)ncnc21
How it was run: as §1

[6] = compound: Cn1cc(-c2ccc3nnc(C(F)(F)c4ccc5ncccc5c4)n3n2)cn1
How it was run: as §1

tipifarnib = compound: Cn1cncc1[C@@](N)(c1ccc(Cl)cc1)c1ccc2c(c1)c(-c1cccc(Cl)c1)cc(=O)n2C [tipifarnib]
How it was run: as §1

mubritinib = compound: FC(F)(F)c1ccc(/C=C/c2nc(COc3ccc(CCCCn4ccnn4)cc3)co2)cc1 [mubritinib]
How it was run: as §1

gandotinib = compound: Cc1cc(Nc2cc(CN3CCOCC3)c3nc(C)c(Cc4ccc(Cl)cc4F)n3n2)n[nH]1 [gandotinib]
How it was run: as §1

[7] = compound: Cc1cccc(CC(=O)N2CCc3c2ccc(-c2cn(C)c4ncnc(N)c24)c3F)n1
How it was run: as §1

duvelisib = compound: C[C@H](Nc1ncnc2nc[nH]c12)c1cc2cccc(Cl)c2c(=O)n1-c1ccccc1 [duvelisib]
How it was run: as §1

[8] = compound: Cc1cc(SCc2sc(-c3ccc(C(F)(F)F)cc3)nc2C)ccc1OCC(=O)O
How it was run: as §1

dasatinib = compound: Cc1nc(Nc2ncc(C(=O)Nc3c(C)cccc3Cl)s2)cc(N2CCN(CCO)CC2)n1 [dasatinib]
How it was run: as §1

[9] = compound: C[C@@H]1COCCN1C2=NC(=NC(=C2)C3(CC3)S(=O)(=O)C)C4=C5C=CNC5=CC=C4
How it was run: as §1

Measured: log2 fold change

MT-CO1 (UniProt P00395)
inactive: [1] 0.088 | crizotinib 0.053 | [2] 0.015 | tozasertib 0.111 | doramapimod -0.063 | ispinesib 0.069 | bafetinib 0.006 | nilotinib 0.034 | [3] 0.02 | [4] -0.051 | [5] -0.108 | [6] -0.059 | tipifarnib -0.234 | mubritinib -0.017

MYNN (UniProt Q9NPC7)
inactive: [1] 0.242 | ispinesib -0.024 | [6] -0.203

MYO1B (UniProt O43795)
inactive: gandotinib 0.02 | [7] -0.161

MYH2 (UniProt Q9UKX2)
inactive: duvelisib 1.7 | [8] -0.594 | bafetinib -0.153 | dasatinib -0.044 | mubritinib 0.005

MSANTD2 (UniProt Q6P1R3)
inactive: [1] 0.295 | [9] 0.089 | [8] 0.039 | dasatinib -0.042

MTAP isoform 2 (UniProt Q13126)
inactive: [1] 0.059 | crizotinib 0.003 | duvelisib 0.108 | gandotinib 0.065 | [8] 0.008 | doramapimod 0.119 | bafetinib -0.225 | [7] -0.06 | dasatinib -0.214

MTMR9 (UniProt Q96QG7)
inactive: crizotinib 0.022 | [9] -0.047 | [2] -0.031 | duvelisib 0.022 | gandotinib 0.015 | tozasertib 0.047 | [8] -0.047 | doramapimod -0.041 | ispinesib -0.056 | bafetinib -0.134 | [7] 0.011 | nilotinib 0.098 | [3] -0.049 | dasatinib -0.028 | [4] 0.053 | [5] 0.05 | [6] 0.016 | tipifarnib -0.08 | mubritinib -0.013

MYL1 (UniProt P05976)
inactive: bafetinib -0.368

MTHFD2L (UniProt Q9H903)
inactive: [1] 0.069 | [9] -0.061 | [2] -0.081 | duvelisib 0.241 | [8] -0.033 | dasatinib 0.053 | [5] 0.108 | mubritinib -0.2

MUC7 (UniProt Q8TAX7)
inactive: [1] 0.316 | [9] -0.491 | ispinesib -0.221 | bafetinib -0.061 | nilotinib -0.284 | [3] 0.019 | [4] 0.073 | [6] 0.181

MTHFD1, A0A384N5Y3
inactive: [1] 0.109 | [9] 0.117 | [2] -0.008 | gandotinib -0.036 | [8] 0.081 | ispinesib -0.082 | bafetinib 0.099 | [7] -0.055 | nilotinib 0.239 | [3] -0.099 | dasatinib -0.153 | [4] -0.031 | [5] 0.087 | [6] -0.008 | tipifarnib -0.146 | mubritinib 0.107

Two neighbouring entries from above, quoted:
MTMR9 (UniProt Q96QG7)
inactive: crizotinib 0.022 | [9] -0.047 | [2] -0.031 | duvelisib 0.022 | gandotinib 0.015 | tozasertib 0.047 | [8] -0.047 | doramapimod -0.041 | ispinesib -0.056 | bafetinib -0.134 | [7] 0.011 | nilotinib 0.098 | [3] -0.049 | dasatinib -0.028 | [4] 0.053 | [5] 0.05 | [6] 0.016 | tipifarnib -0.08 | mubritinib -0.013

MYL1 (UniProt P05976)
inactive: bafetinib -0.368

Further results follow:

MRPS36 (UniProt D6R941)
inactive: [1] 0.253 | [9] -0.012 | nilotinib -0.046 | [3] 0.237 | [4] 0.1

MYH6 (UniProt P13533)
inactive: [9] -0.01 | [2] -0.258 | duvelisib -0.025 | gandotinib 0.038 | [8] -0.134 | [7] -0.001 | nilotinib 0.038 | [3] -0.081 | dasatinib -0.001 | [4] 0.008 | [5] -0.093 | tipifarnib -0.117 | mubritinib 0.063

MTURN (UniProt Q8N3F0)
inactive: crizotinib 0.094 | tozasertib 0.023 | doramapimod 0.009 | bafetinib -0.006 | tipifarnib 0.063 | mubritinib 0.062

MTDH (UniProt E5RJU9)
inactive: crizotinib -0.258 | doramapimod 0.032

MYL6 (UniProt G3V1V0)
inactive: [1] -0.21 | [2] -0.018 | duvelisib -0.025 | tozasertib 0.131 | [8] -0.119 | ispinesib 0.019 | bafetinib -0.143 | dasatinib -0.016 | [5] -0.046 | [6] 0.011 | mubritinib 0.139

MTERF3 (UniProt Q96E29)
inactive: [1] -0.339 | duvelisib 0.091 | gandotinib 0.076 | tozasertib 0.026 | [8] -0.089 | ispinesib -0.067 | bafetinib 0.149 | [7] -0.113 | dasatinib 0.013 | [6] 0.197 | mubritinib -0.224

MTG1 (UniProt Q9BT17)
inactive: crizotinib 0.005 | [9] 0.205 | [2] 0.137 | duvelisib 0.084 | gandotinib 0.148 | tozasertib -0.056 | [8] -0.01 | doramapimod -0.135 | ispinesib 0.235 | bafetinib -0.039 | [7] -0.047 | nilotinib -0.03 | [3] 0.039 | dasatinib -0.067 | [4] -0.007 | [5] -0.125 | [6] 0.034 | tipifarnib 0.042 | mubritinib 0.04

MTHFSD (UniProt Q2M296)
inactive: [2] 0.292 | duvelisib -0.118 | tozasertib 0.035 | [8] 0.009 | dasatinib 0.003 | [5] -0.138 | mubritinib -0.027

MYL3 (UniProt P08590)
inactive: crizotinib 0.024 | [2] 0.028 | duvelisib 0.015 | gandotinib -0.025 | [8] 0.019 | doramapimod 0.075 | ispinesib 0.042 | bafetinib -0.011 | [7] -0.08 | nilotinib -0.078 | [3] 0.08 | dasatinib -0.101 | [4] 0.092 | [5] 0 | [6] 0.018 | tipifarnib 0.045 | mubritinib -0.016
